# Experimental data from the supplement of paper PMC9135407.
# Values joined by “and” are separate entries in the source; they are usually repeats but may differ in a detail not shown here. Identical values can stand only once. Counter-ions that a name gives are not always drawn. ± gives the standard deviation of the averaged measurements. This is one part of the list. Baselines shift from plate to plate; read single values as rough.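 Assay uses culture-activated primary human stellate myofibroblasts; lipid droplet recovery indicates inactivation. Measured: proportion of Hoechst-counted cells over a plate-specific Bodipy cutoff, duplicate wells, DMSO and nortriptyline as per-plate negative and positive controls. A hit scores, control-normalized, above the plate's top-tenth-percentile nortriptyline wells or ranks among its three best wells. Final well concentrations not reported.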
# System: primary human hepatic stellate cells (donor 1)
# Test: percent Bodipy-positive cells; higher = more lipid droplet accumulation
# Conditions: 48 h
# [1] = library stock concentration: 400 uM
# [2] = library stock concentration: 2 mM
# [3] = library stock concentration: 10 mM
# [4] = library stock concentration: 3.33 mM
# [5] = library stock concentration: 1 mM
# [6] = library stock concentration: 80 uM
compound,measurement,setting,value
CC(=O)Nc1ccc([C@H](C)C(=O)Nc2ncc(C(C)C)s2)cc1,percent Bodipy-positive cells,[1],24.2 ± 0.59%
same,percent Bodipy-positive cells,[2],53 ± 1.9%
same,percent Bodipy-positive cells,[3],66.5 ± 1.1%
COc1cc2ncn(-c3cc(OCc4ccccc4S(C)(=O)=O)c(C#N)s3)c2cc1OC [IKK-3 Inhibitor IX],percent Bodipy-positive cells,[4],8.24 ± 1.6%
C=COCC(F)(F)F,percent Bodipy-positive cells,[3],39.5 ± 4.8%
Cc1oc(=O)oc1CN1CCN(c2cc3c(cc2F)c(=O)c(C(=O)O)c2n3C(C)S2)CC1 (stereo not given),percent Bodipy-positive cells,[3],19.9 ± 3.3%
C/C(O)=C(\C#N)C(=O)Nc1ccc(C(F)(F)F)cc1 [Teriflunomide],percent Bodipy-positive cells,[4],6.48 ± 1.8%
same,percent Bodipy-positive cells,[3],48.1 ± 6.2%
COc1nc(C)cnc1NS(=O)(=O)c1cccnc1-c1ccc(-c2nnco2)cc1 [Zibotentan (ZD4054)],percent Bodipy-positive cells,[4],12.4 ± 3.5%
same,percent Bodipy-positive cells,[3],15.2 ± 4%
Nc1ccccc1NC(=O)CCCCCCC(=O)Nc1ccccc1,percent Bodipy-positive cells,[5],11 ± 2.2%
Cn1cc(C2=C(c3cn(CCCSC(=N)N)c4ccccc34)C(=O)NC2=O)c2ccccc21 [Ro 31-8220 Mesylate],percent Bodipy-positive cells,[4],21.3 ± 1.9%
same,percent Bodipy-positive cells,[3],97.8 ± 2.5%
Cn1cc(C2=C(c3cn(CCCSC(=N)N)c4ccccc34)C(=O)NC2=O)c2ccccc21,percent Bodipy-positive cells,[6],15.2 ± 1.1%
same,percent Bodipy-positive cells,[1],26.4 ± 4%
same,percent Bodipy-positive cells,[2],21 ± 5.3%
same,percent Bodipy-positive cells,[4],10.4 ± 4.2%
same,percent Bodipy-positive cells,[3],95.8 ± 4.2%
same,percent Bodipy-positive cells,library stock concentration: 10.9 mM,99.51 ± 0.69%
Cn1cc(C2=C(c3cn(CCCSC(=N)N)c4ccccc34)C(=O)NC2=O)c2ccccc21 [Bisindolylmaleimide IX (mesylate)],percent Bodipy-positive cells,[5],17.7 ± 4.4%
Cn1cc(C2=C(c3cn(CCCSC(=N)N)c4ccccc34)C(=O)NC2=O)c2ccccc21 [Ro 31-8220 mesylate],percent Bodipy-positive cells,[3],46.7 ± 4.6%
C[C@@H]1O[C@@H](O[C@H]2[C@H](Oc3cc(O)c4c(c3)O[C@H](c3ccc(O)cc3)CC4=O)O[C@H](CO)[C@@H](O)[C@@H]2O)[C@H](O)[C@H](O)[C@H]1O [Naringin hydrate],percent Bodipy-positive cells,,28.9 ± 11%
C[C@@H]1O[C@@H](O[C@H]2[C@H](Oc3cc(O)c4c(c3)O[C@H](c3ccc(O)cc3)CC4=O)O[C@H](CO)[C@@H](O)[C@@H]2O)[C@H](O)[C@H](O)[C@H]1O [Naringin],percent Bodipy-positive cells,[4],6.39 ± 1.1%
same,percent Bodipy-positive cells,[3],19.9 ± 17%
N[C@@H](CC(=O)N1CCn2c(nnc2C(F)(F)F)C1)Cc1cc(F)c(F)cc1F [Sitagliptin],percent Bodipy-positive cells,library stock concentration: 4.9 mM,19.7 ± 13%
N[C@@H](CC(=O)N1CCn2c(nnc2C(F)(F)F)C1)Cc1cc(F)c(F)cc1F [Sitagliptin phosphate monohydrate],percent Bodipy-positive cells,[4],8.29 ± 2.8%
same,percent Bodipy-positive cells,[3],13.11 ± 0.028%
"CC1(C)C(=O)N(CCN2CCC(C(=O)c3ccc(F)cc3)CC2)c2ccccc21 [LY-310,762 hydrochloride]",percent Bodipy-positive cells,[3],48.4 ± 7.9%
CC(C)(C)OC(=O)N[C@H]1CCCCC/C=C\[C@@H]2C[C@@]2(C(=O)NS(=O)(=O)C2CC2)NC(=O)[C@@H]2C[C@@H](OC(=O)N3Cc4cccc(F)c4C3)CN2C1=O [Danoprevir (ITMN-191)],percent Bodipy-positive cells,[4],4.36 ± 2.2%
same,percent Bodipy-positive cells,[3],16.7 ± 3.3%
CCN(CC)CC1CCCCN1CC(=O)N1c2ccccc2C(=O)Nc2cccnc21 (stereo not given),percent Bodipy-positive cells,[3],5.57% and 8.04%
CC#CCC(C)[C@H](O)/C=C/[C@@H]1[C@H]2C/C(=C/CCCC(=O)O)C[C@H]2C[C@H]1O (stereo partly drawn) [5-cis Iloprost],percent Bodipy-positive cells,[5],20.3 ± 2.1%
NC(=O)Nc1sc(-c2ccc(F)cc2)cc1C(N)=O,percent Bodipy-positive cells,[6],12.7 ± 4%
same,percent Bodipy-positive cells,[1],10.8 ± 5%
same,percent Bodipy-positive cells,[2],12.5 ± 2.3%
same,percent Bodipy-positive cells,[4],13.7 ± 7.5%
same,percent Bodipy-positive cells,[3],17.9% and 9.41% and 6.7%
N=C(N)c1ccc(N=NNc2ccc(C(=N)N)cc2)cc1,percent Bodipy-positive cells,[3],43.7 ± 2.6%
N=C(N)c1ccc(N=NNc2ccc(C(=N)N)cc2)cc1 [Diminazene Aceturate],percent Bodipy-positive cells,[4],5.07 ± 2.5%
same,percent Bodipy-positive cells,[3],26.3 ± 12%
O=C(O)CCC/C=C\C[C@@H]1C(=O)C[C@@H](O)[C@@H]1/C=C/[C@@H](O)CC1CCCCC1 [8-iso-16-cyclohexyl-tetranor Prostaglandin E2],percent Bodipy-positive cells,[5],11.7 ± 3.6%
C[C@H](CCC(=O)O)[C@H]1CC[C@H]2[C@@H]3C[C@H](O)[C@@H]4C[C@H](O)CC[C@]4(C)[C@H]3CC[C@]12C [Hyodeoxycholic acid (HDCA)],percent Bodipy-positive cells,[4],7.02 ± 2.6%
same,percent Bodipy-positive cells,[3],13.4 ± 3.2%
COc1cc2c(cc1O)[C@@H](Cc1ccc(O)cc1)[N+](C)(C)CC2 [Magnocurarine iodide],percent Bodipy-positive cells,[3],21.2 ± 3.3%
O=C(Nc1ccccc1)OCC(CN1CCCCC1)OC(=O)Nc1ccccc1 (stereo not given) [Diperodon hydrochloride],percent Bodipy-positive cells,,73.6 ± 4.8%
COc1cc2ncnc(Sc3nnc(C)s3)c2cc1OC,percent Bodipy-positive cells,[3],96 ± 2.5%
CO/N=C(\C(=O)N[C@@H]1C(=O)N2C(C(=O)O)=C(CSC(=O)c3ccco3)CS[C@H]12)c1csc(N)n1 [Ceftiofur HCl],percent Bodipy-positive cells,[4],6.1 ± 0.44%
same,percent Bodipy-positive cells,[3],7.73 ± 0.44%
CO/N=C(\C(=O)N[C@@H]1C(=O)N2C(C(=O)O)=C(CSC(=O)c3ccco3)CS[C@H]12)c1csc(N)n1,percent Bodipy-positive cells,[3],28.1 ± 7.2%
N[C@@H]1CCN(O)C1=O,percent Bodipy-positive cells,[3],7.89 ± 0.43%
CC(=O)Nc1ccc(OCC(O)CNC(C)C)cc1 (stereo not given) [Practolol],percent Bodipy-positive cells,,27.8 ± 2%
same,percent Bodipy-positive cells,library stock concentration: 7.5 mM,7.78 ± 2.8%
O=C1NN(C(=O)Nc2ccc(Br)cc2)[C@@H](c2ccccc2)[C@@H]1c1ccccc1,percent Bodipy-positive cells,[3],11.2 ± 1.1%
C#CCCCCCCCCCCCCCCCC(=O)O [17-Octadecynoic Acid],percent Bodipy-positive cells,[5],7.4 ± 0.19%
C#CCCCCCCCCCCCCCCCC(=O)O [17-Octadecynoic acid],percent Bodipy-positive cells,[5],6.28 ± 2.6%
